Data as given in publication PMC8410870.
No constants are given. Whether binding was seen depends on the method and setting. For part of these data: Binding seen in cells or lysates may run through a third protein. Some results given as binding are weak or reduced against the parent protein; the word gives no strength. For part of these data: Where a sequence is shown, tags or fusion partners need not be part of it.

Sequences of proteins named here, by UniProt entry; tags and fusion partners are left off.
UniProt Q8TDY2: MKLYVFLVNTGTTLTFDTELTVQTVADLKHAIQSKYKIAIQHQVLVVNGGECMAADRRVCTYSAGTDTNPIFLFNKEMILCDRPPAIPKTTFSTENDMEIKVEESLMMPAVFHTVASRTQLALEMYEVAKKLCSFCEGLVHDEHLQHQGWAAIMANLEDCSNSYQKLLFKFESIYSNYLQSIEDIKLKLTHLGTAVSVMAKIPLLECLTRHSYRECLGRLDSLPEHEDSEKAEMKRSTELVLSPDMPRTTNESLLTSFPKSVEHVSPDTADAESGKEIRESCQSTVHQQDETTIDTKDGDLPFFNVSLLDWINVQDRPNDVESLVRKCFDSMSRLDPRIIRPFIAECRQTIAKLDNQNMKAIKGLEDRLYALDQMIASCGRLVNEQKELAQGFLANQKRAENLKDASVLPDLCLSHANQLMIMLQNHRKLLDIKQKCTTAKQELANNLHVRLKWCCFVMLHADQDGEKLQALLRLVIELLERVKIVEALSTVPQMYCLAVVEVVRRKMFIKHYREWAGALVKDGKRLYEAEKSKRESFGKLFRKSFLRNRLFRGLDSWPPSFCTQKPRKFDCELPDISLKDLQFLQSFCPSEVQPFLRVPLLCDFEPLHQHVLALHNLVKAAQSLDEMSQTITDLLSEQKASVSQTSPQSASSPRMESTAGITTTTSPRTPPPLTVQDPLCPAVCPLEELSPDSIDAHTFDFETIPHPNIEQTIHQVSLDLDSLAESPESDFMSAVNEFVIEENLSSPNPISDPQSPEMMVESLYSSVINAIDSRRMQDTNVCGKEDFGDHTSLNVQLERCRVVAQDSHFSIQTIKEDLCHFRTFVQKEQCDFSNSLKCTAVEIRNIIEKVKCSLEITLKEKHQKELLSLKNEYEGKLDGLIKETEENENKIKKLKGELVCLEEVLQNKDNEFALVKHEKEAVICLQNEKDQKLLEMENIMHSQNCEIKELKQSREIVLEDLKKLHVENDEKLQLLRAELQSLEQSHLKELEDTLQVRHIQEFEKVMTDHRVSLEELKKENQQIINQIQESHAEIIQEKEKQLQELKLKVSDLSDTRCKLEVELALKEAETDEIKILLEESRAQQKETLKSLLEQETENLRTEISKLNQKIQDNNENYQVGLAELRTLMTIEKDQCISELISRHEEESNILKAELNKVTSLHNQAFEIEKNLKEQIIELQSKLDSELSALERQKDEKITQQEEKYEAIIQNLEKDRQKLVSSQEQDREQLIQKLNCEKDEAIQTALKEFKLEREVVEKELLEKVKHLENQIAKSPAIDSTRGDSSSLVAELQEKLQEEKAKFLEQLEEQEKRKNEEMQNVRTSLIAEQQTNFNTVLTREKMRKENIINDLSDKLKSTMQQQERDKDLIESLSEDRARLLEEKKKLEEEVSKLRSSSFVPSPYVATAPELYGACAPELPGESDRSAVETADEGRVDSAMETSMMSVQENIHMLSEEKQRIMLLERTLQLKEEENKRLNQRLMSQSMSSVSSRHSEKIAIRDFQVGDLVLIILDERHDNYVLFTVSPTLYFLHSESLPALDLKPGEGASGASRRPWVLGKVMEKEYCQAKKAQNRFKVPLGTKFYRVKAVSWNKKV

Assays:
[1] = target: T1, endogenously tagged GFP-AID-NBR1 (human (endogenous in HAP1)) (UniProt Q14596); assay: co-IP; lysates of HAP1 WT and GFP-AID-NBR1 cells on GFP-trap magnetic beads, 1 h at 4 °C, washed in 25 mM Hepes pH 7.5, 125 mM NaCl, 0.05% Triton X 100; western blot
T1 sequence: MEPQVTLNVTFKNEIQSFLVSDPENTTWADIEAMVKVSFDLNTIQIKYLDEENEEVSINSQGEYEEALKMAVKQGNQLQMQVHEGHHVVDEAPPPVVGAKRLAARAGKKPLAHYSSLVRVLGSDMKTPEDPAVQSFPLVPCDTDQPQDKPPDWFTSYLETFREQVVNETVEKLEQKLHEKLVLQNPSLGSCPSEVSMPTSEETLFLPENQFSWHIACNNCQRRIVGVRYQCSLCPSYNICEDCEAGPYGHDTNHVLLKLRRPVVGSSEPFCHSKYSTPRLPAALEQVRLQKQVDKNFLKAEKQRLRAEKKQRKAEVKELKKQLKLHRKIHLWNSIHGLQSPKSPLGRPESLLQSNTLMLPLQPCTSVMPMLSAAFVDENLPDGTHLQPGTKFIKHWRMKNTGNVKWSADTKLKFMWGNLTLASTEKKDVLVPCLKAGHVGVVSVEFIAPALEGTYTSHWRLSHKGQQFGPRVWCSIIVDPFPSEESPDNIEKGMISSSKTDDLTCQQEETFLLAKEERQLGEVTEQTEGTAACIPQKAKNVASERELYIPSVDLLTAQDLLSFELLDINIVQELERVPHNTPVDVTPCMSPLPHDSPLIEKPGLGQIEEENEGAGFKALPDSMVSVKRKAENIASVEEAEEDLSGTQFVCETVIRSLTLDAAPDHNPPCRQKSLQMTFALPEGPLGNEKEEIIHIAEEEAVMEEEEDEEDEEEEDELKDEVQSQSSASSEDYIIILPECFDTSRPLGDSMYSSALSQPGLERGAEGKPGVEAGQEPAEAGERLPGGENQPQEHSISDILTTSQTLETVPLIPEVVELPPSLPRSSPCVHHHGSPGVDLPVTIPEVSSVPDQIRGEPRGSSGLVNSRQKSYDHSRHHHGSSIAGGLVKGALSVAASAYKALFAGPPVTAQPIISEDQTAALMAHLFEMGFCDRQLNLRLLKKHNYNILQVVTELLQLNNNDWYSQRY

GST-TAX1BP1 (human) [2] = target: GST-TAX1BP1 (human) (UniProt Q86VP1); assay: pull-down; microscopy-based protein-protein interaction assay: GST-tagged bait saturated on Glutathione Sepharose 4B beads, fluorescent prey at 2 µM, 25 mM HEPES pH 7.5, 150 mM NaCl, 1 mM DTT, 30 min-1 h at room temperature, beads imaged at the equilibrium by confocal microscopy; both purified
GST-TAX1BP1 (human) [3] = target: GST-TAX1BP1 (human) (UniProt Q86VP1); assay: pull-down; microscopy-based pull-down followed over time: GST-TAX1BP1 on glutathione beads with 2 µM mCherry-p62 for 30 min, then GFP-NBR1 (2 µM) added and imaged for 30 min (one image every 2 min); reactions without GFP-NBR1 or without mCherry-p62 as controls; both purified

FIP200 (endogenous) (from UniProt Q8TDY2 1-1594)
binding [1]: binds

GFP-p62 WT (from UniProt Q13501 1-440)
binding (GST-TAX1BP1 (human) [2]): binds weakly

mCherry-p62 WT (from UniProt Q13501 1-440)
binding (GST-TAX1BP1 (human) [3]): binds weakly
